At least one structure is not confirmed: it was looked up by name or label, or the drawing left a doubt.
Test system: A54145.1, A54145.2, and A54145.3
Test: Resistance to antibiotics, sensitivity discs on seeded ISP No. 2 agar plates
Assay type: cell-based, Streptomyces fradiae
Settings: disc at 30 µg
Experimental: A54145.1, A54145.2, and A54145.3 had identical antibiotic-resistance patterns. The strains were resistant to lincomycin at 2 µg and penicillin G at 10 units. The strains were sensitive to bacitracin at 10 units, cephalothin at 30 µg, gentamicin at 10 µg, neomycin at 30 µg, oleandomycin at 15 µg, rifampin at 5 µg, streptomycin at 10 µg, tetracycline at 30 µg, tobramycin at 10 µg and vancomycin at 30 µg.

## CN(C)[C@@H]1C(O)=C(C(N)=O)C(=O)[C@@]2(O)C(O)=C3C(=O)c4c(O)cccc4[C@@](C)(O)[C@H]3C[C@@H]12 [tetracycline]
  antibiotic-resistance pattern: sensitive

Reference: patent EP0337731B1, “Peptide antibiotics” (ELI LILLY AND COMPANY, priority 1988, dated 1989)
